Some results were stated once for a whole list of compounds, not compound by compound. At least one structure is not confirmed: it was looked up by name or label, or the drawing left a doubt.
System: cabbage moth (Plutella xylostella)
Assay: Insecticidal test against cabbage moth (leaf dip)
Assay type: in vivo
Settings: second instar larva, after 6 days

Structure (SMILES) | insecticidal rate (rate of dead insects) (10 ppm (**)) [%] | also measured
O=C(NCc1ccc(C2=NOC(c3cc(Cl)cc(Cl)c3)(C(F)(F)F)C2)cc1Cl)NCC(F)(F)F (centres unmarked) [4-013] | ≥ 80 | 
NC(=O)NCc1ccc(C2=NOC(c3cc(Cl)cc(Cl)c3)(C(F)(F)F)C2)cc1Cl (centres unmarked) [4-014] |  | insecticidal rate (rate of dead insects) (100 ppm (*)): ≥ 80%
CCNC(=O)NCc1ccc(C2=NOC(c3cc(Cl)c(Cl)c(Cl)c3)(C(F)(F)F)C2)cc1Cl (centres unmarked) [4-015] |  | insecticidal rate (rate of dead insects) (100 ppm (*)): ≥ 80%
CCNC(=O)NCc1ccc(C2=NOC(c3cc(Cl)cc(Cl)c3)(C(F)(F)F)C2)cc1Br (centres unmarked) [4-016] | ≥ 80 | 
CCNC(=O)NC(C)c1ccc(C2=NOC(c3cc(Cl)c(Cl)c(Cl)c3)(C(F)(F)F)C2)cc1 (centres unmarked) [4-017] | ≥ 80 | 
CCN(CC)C(=O)NCc1ccc(C2=NOC(c3cc(Cl)c(Cl)c(Cl)c3)(C(F)(F)F)C2)cc1Cl (centres unmarked) [4-018] | ≥ 80 | 
CCN(CC)C(=O)NCc1ccc(C2=NOC(c3cc(Cl)c(Cl)c(Cl)c3)(C(F)(F)F)C2)cc1[N+](=O)[O-] (centres unmarked) [4-019] | ≥ 80 | 
CC(C)NC(=O)NCc1ccc(C2=NOC(c3cc(Cl)c(Cl)c(Cl)c3)(C(F)(F)F)C2)cc1Cl (centres unmarked) [4-020] | ≥ 80 | 
CC(C)NC(=O)NCc1ccc(C2=NOC(c3cc(Cl)cc(Cl)c3)(C(F)(F)F)C2)cc1Br (centres unmarked) [4-021] | ≥ 80 | 
CC(C)NC(=O)NC(C)c1ccc(C2=NOC(c3cc(Cl)c(Cl)c(Cl)c3)(C(F)(F)F)C2)cc1 (centres unmarked) [4-022] | ≥ 80 | 
O=C(NCc1ccc(C2=NOC(c3cc(C(F)(F)F)cc(C(F)(F)F)c3)(C(F)(F)F)C2)cc1Cl)NC1CC1 (centres unmarked) [4-023] | ≥ 80 | 
O=C(NCc1ccc(C2=NOC(c3cc(Cl)c(Cl)c(Cl)c3)(C(F)(F)F)C2)cc1Cl)NC1CC1 (centres unmarked) [4-024] | ≥ 80 | 
O=C(NCc1ccc(C2=NOC(c3cc(Cl)c(Cl)c(Cl)c3)(C(F)(F)F)C2)cc1Br)NC1CC1 (centres unmarked) [4-025] | ≥ 80 | 
O=C(NCc1ccc(C2=NOC(c3cc(Cl)c(Cl)c(Cl)c3)(C(F)(F)F)C2)cc1[N+](=O)[O-])NC1CC1 (centres unmarked) [4-026] | ≥ 80 | 
CC(NC(=O)NC1CC1)c1ccc(C2=NOC(c3cc(C(F)(F)F)cc(C(F)(F)F)c3)(C(F)(F)F)C2)cc1 (centres unmarked) [4-027] | ≥ 80 | 
CC(NC(=O)NC1CC1)c1ccc(C2=NOC(c3cc(Cl)c(Cl)c(Cl)c3)(C(F)(F)F)C2)cc1 (centres unmarked) [4-028] | ≥ 80 | 
CC(C)CNC(=O)NCc1ccc(C2=NOC(c3cc(Cl)c(Cl)c(Cl)c3)(C(F)(F)F)C2)cc1Cl (centres unmarked) [4-029] |  | insecticidal rate (rate of dead insects) (100 ppm (*)): ≥ 80%
O=C(NCc1ccc(C2=NOC(c3cc(Cl)cc(Cl)c3)(C(F)(F)F)C2)cc1Cl)NCC1CC1 (centres unmarked) [4-030] |  | insecticidal rate (rate of dead insects) (100 ppm (*)): ≥ 80%
O=C(NCc1ccc(C2=NOC(c3cc(Cl)c(Cl)c(Cl)c3)(C(F)(F)F)C2)cc1Cl)NCC1CC1 (centres unmarked) [4-031] | ≥ 80 | 
O=C(NCc1ccc(C2=NOC(c3cc(Cl)c(Cl)c(Cl)c3)(C(F)(F)F)C2)cc1Cl)NC1CCC1 (centres unmarked) [4-032] | ≥ 80 | 
CC(C)(C)CNC(=O)NCc1ccc(C2=NOC(c3cc(Cl)c(Cl)c(Cl)c3)(C(F)(F)F)C2)cc1Cl (centres unmarked) [4-033] |  | insecticidal rate (rate of dead insects) (100 ppm (*)): ≥ 80%
O=C(NCc1ccc(C2=NOC(c3cc(Cl)c(Cl)c(Cl)c3)(C(F)(F)F)C2)cc1Cl)NC1CCCC1 (centres unmarked) [4-034] |  | insecticidal rate (rate of dead insects) (500 ppm): ≥ 80%
CC(NC(=O)NCCCl)c1ccc(C2=NOC(c3cc(Cl)c(Cl)c(Cl)c3)(C(F)(F)F)C2)cc1 (centres unmarked) [4-035] | ≥ 80 | 
O=C(NCc1ccc(C2=NOC(c3cc(Cl)c(Cl)c(Cl)c3)(C(F)(F)F)C2)cc1Cl)NCC(F)(F)F (centres unmarked) [4-036] | ≥ 80 | 
O=C(NCc1ccc(C2=NOC(c3cc(Cl)c(Cl)c(Cl)c3)(C(F)(F)F)C2)cc1Br)NCC(F)(F)F (centres unmarked) [4-037] | ≥ 80 | 
O=C(NCc1ccc(C2=NOC(c3cc(Cl)c(Cl)c(Cl)c3)(C(F)(F)F)C2)cc1[N+](=O)[O-])NCC(F)(F)F (centres unmarked) [4-038] | ≥ 80 | 
